Consider two substances from article PMC5111884.

Protein sequences, listed by entry. Tags and fused reporters are not part of them. Residues count along the entry.
UniProt P53762: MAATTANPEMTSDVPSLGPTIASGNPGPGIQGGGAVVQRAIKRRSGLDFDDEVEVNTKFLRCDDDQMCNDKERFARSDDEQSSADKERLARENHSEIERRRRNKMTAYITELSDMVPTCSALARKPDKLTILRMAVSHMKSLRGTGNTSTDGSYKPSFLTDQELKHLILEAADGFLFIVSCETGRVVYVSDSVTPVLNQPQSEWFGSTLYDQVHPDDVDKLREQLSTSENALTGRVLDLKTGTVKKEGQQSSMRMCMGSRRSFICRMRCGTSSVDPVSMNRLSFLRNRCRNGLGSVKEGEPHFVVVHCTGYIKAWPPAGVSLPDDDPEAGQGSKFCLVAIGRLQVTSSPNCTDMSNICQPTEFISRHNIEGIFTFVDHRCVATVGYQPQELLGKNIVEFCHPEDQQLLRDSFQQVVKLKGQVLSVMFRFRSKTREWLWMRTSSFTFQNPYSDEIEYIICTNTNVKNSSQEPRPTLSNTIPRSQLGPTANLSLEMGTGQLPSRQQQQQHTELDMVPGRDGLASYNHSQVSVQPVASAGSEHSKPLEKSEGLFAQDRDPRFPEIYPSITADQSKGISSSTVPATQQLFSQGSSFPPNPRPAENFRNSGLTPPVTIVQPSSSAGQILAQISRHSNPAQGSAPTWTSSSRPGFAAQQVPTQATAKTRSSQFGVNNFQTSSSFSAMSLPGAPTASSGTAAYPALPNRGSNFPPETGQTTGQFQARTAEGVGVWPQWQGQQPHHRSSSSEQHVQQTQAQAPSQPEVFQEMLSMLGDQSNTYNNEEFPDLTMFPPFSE
UniProt Q61324: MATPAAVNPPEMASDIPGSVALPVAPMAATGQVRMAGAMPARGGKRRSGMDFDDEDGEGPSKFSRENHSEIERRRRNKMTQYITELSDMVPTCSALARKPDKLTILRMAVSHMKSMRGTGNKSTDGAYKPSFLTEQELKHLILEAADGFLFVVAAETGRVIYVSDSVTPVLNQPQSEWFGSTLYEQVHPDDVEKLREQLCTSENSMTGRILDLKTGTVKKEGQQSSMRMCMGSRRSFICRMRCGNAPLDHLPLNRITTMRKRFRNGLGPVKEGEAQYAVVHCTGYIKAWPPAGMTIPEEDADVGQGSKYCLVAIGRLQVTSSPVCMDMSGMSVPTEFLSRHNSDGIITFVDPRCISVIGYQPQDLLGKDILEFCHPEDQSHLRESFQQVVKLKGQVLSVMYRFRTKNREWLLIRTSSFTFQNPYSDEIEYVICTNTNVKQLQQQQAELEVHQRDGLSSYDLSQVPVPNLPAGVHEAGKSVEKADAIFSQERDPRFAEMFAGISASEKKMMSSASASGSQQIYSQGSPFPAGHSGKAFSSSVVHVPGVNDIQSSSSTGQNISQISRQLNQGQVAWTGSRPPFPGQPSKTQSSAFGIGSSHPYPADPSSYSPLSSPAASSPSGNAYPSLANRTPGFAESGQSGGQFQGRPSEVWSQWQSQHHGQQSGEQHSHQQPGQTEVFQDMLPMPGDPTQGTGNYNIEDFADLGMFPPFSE
UniProt P30561, residues 10-848: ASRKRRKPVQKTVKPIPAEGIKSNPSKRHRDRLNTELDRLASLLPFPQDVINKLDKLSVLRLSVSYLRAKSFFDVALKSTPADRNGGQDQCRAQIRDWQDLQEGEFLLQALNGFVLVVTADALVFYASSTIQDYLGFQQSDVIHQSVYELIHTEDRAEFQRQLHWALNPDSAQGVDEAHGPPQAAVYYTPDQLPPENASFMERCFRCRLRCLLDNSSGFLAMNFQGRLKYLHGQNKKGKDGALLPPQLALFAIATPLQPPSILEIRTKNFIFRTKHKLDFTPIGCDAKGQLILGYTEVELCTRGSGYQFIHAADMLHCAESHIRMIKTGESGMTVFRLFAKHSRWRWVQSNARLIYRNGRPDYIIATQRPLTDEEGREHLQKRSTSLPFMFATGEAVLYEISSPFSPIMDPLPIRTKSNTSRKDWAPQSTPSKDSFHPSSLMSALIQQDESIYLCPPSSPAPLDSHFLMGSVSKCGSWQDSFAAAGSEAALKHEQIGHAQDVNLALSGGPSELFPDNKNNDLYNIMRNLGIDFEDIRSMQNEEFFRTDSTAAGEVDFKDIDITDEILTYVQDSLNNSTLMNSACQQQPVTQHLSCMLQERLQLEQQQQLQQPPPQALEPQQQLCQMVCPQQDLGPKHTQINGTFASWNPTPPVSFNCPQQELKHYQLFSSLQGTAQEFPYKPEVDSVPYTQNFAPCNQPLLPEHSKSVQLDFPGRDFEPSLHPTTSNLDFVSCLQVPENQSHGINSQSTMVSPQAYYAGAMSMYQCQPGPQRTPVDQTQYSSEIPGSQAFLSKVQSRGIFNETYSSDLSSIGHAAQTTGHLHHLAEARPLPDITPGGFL
UniProt Q61045: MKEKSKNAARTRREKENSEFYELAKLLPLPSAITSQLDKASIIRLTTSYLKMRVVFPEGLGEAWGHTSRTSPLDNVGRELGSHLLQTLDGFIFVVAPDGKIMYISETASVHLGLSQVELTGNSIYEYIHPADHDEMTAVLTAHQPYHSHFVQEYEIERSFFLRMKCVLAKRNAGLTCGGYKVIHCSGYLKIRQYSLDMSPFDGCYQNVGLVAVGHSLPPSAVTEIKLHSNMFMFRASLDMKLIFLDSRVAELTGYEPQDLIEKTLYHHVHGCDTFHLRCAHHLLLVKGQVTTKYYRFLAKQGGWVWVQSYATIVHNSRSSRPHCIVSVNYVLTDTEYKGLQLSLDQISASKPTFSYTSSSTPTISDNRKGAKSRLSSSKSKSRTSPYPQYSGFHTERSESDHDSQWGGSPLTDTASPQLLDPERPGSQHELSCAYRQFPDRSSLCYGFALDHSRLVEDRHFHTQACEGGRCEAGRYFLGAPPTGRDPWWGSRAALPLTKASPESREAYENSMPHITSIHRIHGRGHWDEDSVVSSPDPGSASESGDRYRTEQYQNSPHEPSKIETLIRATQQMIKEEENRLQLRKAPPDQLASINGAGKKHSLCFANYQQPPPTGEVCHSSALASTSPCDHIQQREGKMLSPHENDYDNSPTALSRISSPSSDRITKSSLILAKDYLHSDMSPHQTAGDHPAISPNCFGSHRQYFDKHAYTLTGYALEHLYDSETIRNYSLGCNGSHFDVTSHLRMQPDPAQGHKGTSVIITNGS

In test [1] the target is full-length ARNT (pCMV-Tag1-ARNT), Flag-tagged (mouse) (UniProt P53762). Description: co-IP; HEK293T cells co-transfected with pCMV-Tag4 (Myc) class I partner and pCMV-Tag1 (Flag) ARNT or ARNT2, WT or mutants; 10 nM 2,3,7,8-tetrachlorodibenzo-p-dioxin added in the case of AHR; immunoprecipitation as in Wu et al., 2015.
The target in test [2] is mouse ARNT2 (pCMV-Tag1-ARNT2), C-terminal Flag-tagged (mouse) (UniProt Q61324). The description is as above.

These are yes or no findings as the source states them, for the method shown. In cells and extracts the contact can be indirect. Some entries that bind do so weakly or less than the wild type.

Take “AHR (pCMV-Tag4-AHR) (from UniProt P30561 10-848)”: the binding entry in test [1] was “binds”. Take “full-length mouse SIM1, C-terminal Myc-tagged (from UniProt Q61045 1-765)”: the binding entry in test [2] and in test [1] was “binds” in each case.
